Reference: PubChem BioAssay
This is one part of the list. Measured potencies and affinities stand elsewhere. Where no call is shown, the source marks the result inconclusive.

Assay: Polyglutamine toxicity reduction dose response, whole organism Drosophila SCA1 model (AID 1595)
Details: at 1 µM, stronger effect = higher value

SMILES	suppression of toxicity
CCC(c1ccc(O)cc1)C(CC)c1ccc(O)cc1 (stereo not drawn)	4.29
C[N+]1(CCCCC[N+]2(C)CCCC2)CCCC1	0
O=c1[nH]cnc2[nH]ncc12	10
CCC(C)CCCCC(=O)NC(CCN)C(=O)NC(C(=O)NC(CCN)C(=O)NC1CCNC(=O)C(C(C)O)NC(=O)C(CCN)NC(=O)C(CCN)NC(=O)C(CC(C)C)NC(=O)C(Cc2ccccc2)NC(=O)C(CCN)NC1=O)C(C)O (stereo not drawn)	2.85
C[C@]12C=CC(=O)C=C1CCC1C3C[C@@H](O)[C@](O)(C(=O)CO)[C@@]3(C)C[C@H](O)[C@@]12F (stereo partly drawn)	1.43
C[C@H](CS)C(=O)N1CCC[C@H]1C(=O)O	5.71
C[N+](C)(C)CC(O)CC(=O)O (stereo not drawn)	1.43
COc1ccc2c(c1)c(CC(=O)OCC(=O)O)c(C)n2C(=O)c1ccc(Cl)cc1	2.86
COc1cc(S(C)=O)ccc1-c1nc2ncccc2[nH]1 (stereo not drawn)	1.43
Nc1nc(N)c2nc(-c3ccccc3)c(N)nc2n1	2.86
CS(=O)(=O)c1ccc([C@@H](O)[C@@H](CO)NC(=O)C(Cl)Cl)cc1	1.43
C/C=C/CC(C)C(O)C1C(=O)NC(CC)C(=O)N(C)CC(=O)N(C)C(CC(C)C)C(=O)NC(C(C)C)C(=O)N(C)C(CC(C)C)C(=O)NC(C)C(=O)NC(C)C(=O)N(C)C(CC(C)C)C(=O)N(C)C(CC(C)C)C(=O)N(C)C(C(C)C)C(=O)N1C (stereo not drawn)	2.86
Cc1onc(-c2ccccc2Cl)c1C(=O)N[C@@H]1C(=O)N2[C@@H]1SC(C)(C)[C@@H]2C(=O)O	0
Nc1ccc(C(=O)O)c(O)c1 (tested in a mixture with another compound)	7.14
O=C(CCCN1CCC(O)(c2ccc(Cl)cc2)CC1)c1ccc(F)cc1	8.57
O=C(O)CN(CC(=O)O)Cc1cc2c(-c3ccccc3C(=O)O)c3cc(CN(CC(=O)O)CC(=O)O)c(=O)cc-3oc2cc1O	1.43
CCN(CC)CCCC(C)Nc1c2ccc(Cl)cc2nc2ccc(OC)cc12 (stereo not drawn)	8.57
NC(Cc1ccc(Cl)cc1)C(=O)O (stereo not drawn)	0
C[C@]12CCC3c4ccc(OS(=O)(=O)O)cc4CCC3C1CC[C@H]2O (stereo partly drawn)	0
COc1cc(NS(=O)(=O)c2ccc(N)cc2)nc(OC)n1	0
CO[C@@]1(NC(=O)C(C(=O)O)c2ccc(O)cc2)C(=O)N2C(C(=O)O)=C(CSc3nnnn3C)CO[C@@H]21 (stereo partly drawn)	0
CC12CCC(=O)C=C1CCC1C2[C@@H](O)CC2(C)C1CC[C@]2(O)C(=O)COP(=O)(O)O (stereo partly drawn)	2.86
Cc1ccc(/C(=C\CN2CCCC2)c2ccccn2)cc1	4.29

Assay: PubChem AID 1597
Details: Drosophila SCA1 polyglutamine model, at 1 µM, stronger effect = higher value

SMILES	suppression of toxicity
CCCN(CCC)C(=O)C(CCC(=O)O)NC(=O)c1ccccc1 (stereo not drawn)	11.4
NS(=O)(=O)c1cc2c(cc1Cl)NC(C(Cl)Cl)NS2(=O)=O (stereo not drawn)	2.86
COc1cc2c(c(OC)c1OC)-c1ccc(OC)c(=O)cc1[C@@H](NC(C)=O)CC2	0
CC(Cc1ccc(O)c(O)c1)(NN)C(=O)O (stereo not drawn)	2.86
CN1C(CC(=O)c2ccccc2)CCCC1CC(O)c1ccccc1 (stereo not drawn)	10
COc1cccc(C(=O)c2ccccc2O)c1O	0.715
Clc1cc(Cl)c(OCC#CI)cc1Cl	9.29
NC(N)=Nc1nc(CSCC/C(N)=N\S(N)(=O)=O)cs1	3.57
O=C1c2c(O)cccc2Cc2cccc(O)c21	1.43
CC(=O)OCC(=O)[C@@]12OC(C)(C)O[C@@H]1C[C@H]1C3C[C@H](F)C4=CC(=O)C=CC4(C)[C@@]3(F)[C@@H](O)C[C@@]12C (stereo partly drawn)	0.715
C[C@H](CCC(=O)O)[C@H]1CCC2C3C(CC[C@@]21C)[C@@]1(C)CC[C@@H](O)C[C@H]1C[C@H]3O (stereo partly drawn)	0.715
CNCCC=C1c2ccccc2CCc2ccccc21	2.15
CC(C(=O)O)c1ccc(C(=O)c2cccs2)cc1 (stereo not drawn)	4.29
COc1ccc([C@@H]2CC(=O)c3c(O)cc(O)cc3O2)cc1O	0
CC(=C(CCOP(=O)(O)O)SC(=O)c1ccccc1)N(C=O)Cc1cnc(C)nc1N	10
COC(=O)[C@H]1[C@H]2C[C@@H]3c4[nH]c5cc(OC)ccc5c4CCN3C[C@H]2C[C@@H](OC(=O)c2cc(OC)c(OC)c(OC)c2)[C@@H]1OC	3.58
CC12CCC(CC1=O)C2(C)C (stereo not drawn)	3.57
CCC(c1ccc(O)cc1)C(CC)c1ccc(O)cc1 (stereo not drawn)	0.715
C[N+]1(CCCCC[N+]2(C)CCCC2)CCCC1	2.15
O=c1[nH]cnc2[nH]ncc12	10

SMILES	suppression of toxicity
CCC(C)CCCCC(=O)NC(CCN)C(=O)NC(C(=O)NC(CCN)C(=O)NC1CCNC(=O)C(C(C)O)NC(=O)C(CCN)NC(=O)C(CCN)NC(=O)C(CC(C)C)NC(=O)C(Cc2ccccc2)NC(=O)C(CCN)NC1=O)C(C)O (stereo not drawn)	5
C[C@]12C=CC(=O)C=C1CCC1C3C[C@@H](O)[C@](O)(C(=O)CO)[C@@]3(C)C[C@H](O)[C@@]12F (stereo partly drawn)	5
C[C@H](CS)C(=O)N1CCC[C@H]1C(=O)O	8.57
C[N+](C)(C)CC(O)CC(=O)O (stereo not drawn)	0
COc1ccc2c(c1)c(CC(=O)OCC(=O)O)c(C)n2C(=O)c1ccc(Cl)cc1	6.43
COc1cc(S(C)=O)ccc1-c1nc2ncccc2[nH]1 (stereo not drawn)	6.42
Nc1nc(N)c2nc(-c3ccccc3)c(N)nc2n1	10
CS(=O)(=O)c1ccc([C@@H](O)[C@@H](CO)NC(=O)C(Cl)Cl)cc1	2.15
C/C=C/CC(C)C(O)C1C(=O)NC(CC)C(=O)N(C)CC(=O)N(C)C(CC(C)C)C(=O)NC(C(C)C)C(=O)N(C)C(CC(C)C)C(=O)NC(C)C(=O)NC(C)C(=O)N(C)C(CC(C)C)C(=O)N(C)C(CC(C)C)C(=O)N(C)C(C(C)C)C(=O)N1C (stereo not drawn)	1.43
Cc1onc(-c2ccccc2Cl)c1C(=O)N[C@@H]1C(=O)N2[C@@H]1SC(C)(C)[C@@H]2C(=O)O	2.15
Nc1ccc(C(=O)O)c(O)c1 (tested in a mixture with another compound)	8.57
O=C(CCCN1CCC(O)(c2ccc(Cl)cc2)CC1)c1ccc(F)cc1	13.6
O=C(O)CN(CC(=O)O)Cc1cc2c(-c3ccccc3C(=O)O)c3cc(CN(CC(=O)O)CC(=O)O)c(=O)cc-3oc2cc1O	2.85
CCN(CC)CCCC(C)Nc1c2ccc(Cl)cc2nc2ccc(OC)cc12 (stereo not drawn)	7.14
NC(Cc1ccc(Cl)cc1)C(=O)O (stereo not drawn)	0.715
C[C@]12CCC3c4ccc(OS(=O)(=O)O)cc4CCC3C1CC[C@H]2O (stereo partly drawn)	5
COc1cc(NS(=O)(=O)c2ccc(N)cc2)nc(OC)n1	0.715
CO[C@@]1(NC(=O)C(C(=O)O)c2ccc(O)cc2)C(=O)N2C(C(=O)O)=C(CSc3nnnn3C)CO[C@@H]21 (stereo partly drawn)	0.715
CC12CCC(=O)C=C1CCC1C2[C@@H](O)CC2(C)C1CC[C@]2(O)C(=O)COP(=O)(O)O (stereo partly drawn)	3.58
Cc1ccc(/C(=C\CN2CCCC2)c2ccccn2)cc1	4.29
